Experimental data taken from patent US20230090156A1 (NANYANG TECHNOLOGICAL UNIVERSITY, published 2023).
Changes are numbered by the printed parent chain. No constants are given. Whether binding was seen depends on the method and setting. Some binding calls cover weakened binding; strength is not graded here.

B1: Antuzumab 1 (antibody, V domains shown)
VH: QVTLKESGPTLVKPTQTLTLTCTFSGFSLSTSGMGVGWIRQPPGKALEWLAHIWWDDDKYYNPSLKSRLTISKDTSKNQVVLTMTNMDPVDTATYYCARKDYGSSYDYWGQGTTVTVSS
VL: DIVMTQSPLSLPVTPGEPASISCKASQSVDYDGDSYLNWYLQKPGQSPRLLIYTASNLESGVPDRFSGSGSGTDFTLKISRVEAEDVGVYYCFQSNEDPWTFGQGTKLEIK
notes: Humanized monoclonal antibody made in CHO cells; also called ANG49; ANGH3 + ANGK3
B2: Antuzumab 3 (antibody, V domains shown)
VH: B1 VH with V2I, S72T, T114L
VL: DIVMTQSPDSLAVSLGERATINCKASQSVDYDGDSYLNWYQQKPGQPPKLLIYTASNLESGVPDRFSGSGSGTDFTLTISSLQAEDVAVYYCQQSNEDPWTFGQGTKVEIK
notes: Humanized monoclonal antibody made in CHO cells; also called ANG27; ANGH1 + ANGK1

Target: T1, human cANGPTL4 (C-terminal fragment of Angiopoietin-like 4 protein) (human) (UniProt Q9BY76)
T1 sequence (looked up): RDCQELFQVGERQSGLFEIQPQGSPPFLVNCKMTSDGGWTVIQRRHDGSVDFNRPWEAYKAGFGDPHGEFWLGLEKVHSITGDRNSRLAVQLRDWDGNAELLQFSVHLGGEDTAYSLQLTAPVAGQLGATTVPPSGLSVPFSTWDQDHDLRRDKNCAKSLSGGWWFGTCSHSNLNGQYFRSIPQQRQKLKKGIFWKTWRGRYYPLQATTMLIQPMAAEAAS
Experiment: indirect ELISA and SPR on human cANGPTL4

binding	Binder
binds	B1
binds	B2
